Publication PMC11163730
Results are given in words; binding and its absence hold for the method and conditions named. In cells and extracts the contact can be indirect. Some entries that bind do so weakly or less than the wild type.

Protein sequences, listed by entry. Tags and fused reporters are not part of them.
UniProt P50613: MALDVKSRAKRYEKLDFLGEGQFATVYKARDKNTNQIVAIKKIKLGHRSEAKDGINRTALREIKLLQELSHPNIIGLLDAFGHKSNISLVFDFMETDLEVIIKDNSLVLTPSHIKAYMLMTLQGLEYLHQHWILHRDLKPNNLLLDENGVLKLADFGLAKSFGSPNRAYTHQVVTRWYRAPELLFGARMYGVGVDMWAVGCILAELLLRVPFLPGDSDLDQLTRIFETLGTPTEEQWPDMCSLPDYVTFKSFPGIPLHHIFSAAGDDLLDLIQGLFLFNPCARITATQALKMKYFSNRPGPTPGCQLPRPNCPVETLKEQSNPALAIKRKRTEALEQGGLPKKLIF
UniProt P50750: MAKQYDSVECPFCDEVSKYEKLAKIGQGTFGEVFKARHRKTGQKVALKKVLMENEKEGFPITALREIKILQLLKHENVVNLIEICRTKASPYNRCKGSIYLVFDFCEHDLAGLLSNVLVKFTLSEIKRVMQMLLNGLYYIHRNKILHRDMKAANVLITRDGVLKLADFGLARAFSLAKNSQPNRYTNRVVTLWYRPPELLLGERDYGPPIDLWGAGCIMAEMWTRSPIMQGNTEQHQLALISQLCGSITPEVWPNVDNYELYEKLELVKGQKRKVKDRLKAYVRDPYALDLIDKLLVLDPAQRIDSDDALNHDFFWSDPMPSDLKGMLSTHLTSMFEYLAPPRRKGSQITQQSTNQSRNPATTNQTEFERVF
UniProt P04792: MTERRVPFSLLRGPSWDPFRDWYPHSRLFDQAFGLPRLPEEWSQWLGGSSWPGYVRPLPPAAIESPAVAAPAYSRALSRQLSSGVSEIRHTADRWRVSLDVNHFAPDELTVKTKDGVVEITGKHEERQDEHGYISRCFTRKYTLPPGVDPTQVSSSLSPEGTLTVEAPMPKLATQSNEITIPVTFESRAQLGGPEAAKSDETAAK
UniProt Q92598: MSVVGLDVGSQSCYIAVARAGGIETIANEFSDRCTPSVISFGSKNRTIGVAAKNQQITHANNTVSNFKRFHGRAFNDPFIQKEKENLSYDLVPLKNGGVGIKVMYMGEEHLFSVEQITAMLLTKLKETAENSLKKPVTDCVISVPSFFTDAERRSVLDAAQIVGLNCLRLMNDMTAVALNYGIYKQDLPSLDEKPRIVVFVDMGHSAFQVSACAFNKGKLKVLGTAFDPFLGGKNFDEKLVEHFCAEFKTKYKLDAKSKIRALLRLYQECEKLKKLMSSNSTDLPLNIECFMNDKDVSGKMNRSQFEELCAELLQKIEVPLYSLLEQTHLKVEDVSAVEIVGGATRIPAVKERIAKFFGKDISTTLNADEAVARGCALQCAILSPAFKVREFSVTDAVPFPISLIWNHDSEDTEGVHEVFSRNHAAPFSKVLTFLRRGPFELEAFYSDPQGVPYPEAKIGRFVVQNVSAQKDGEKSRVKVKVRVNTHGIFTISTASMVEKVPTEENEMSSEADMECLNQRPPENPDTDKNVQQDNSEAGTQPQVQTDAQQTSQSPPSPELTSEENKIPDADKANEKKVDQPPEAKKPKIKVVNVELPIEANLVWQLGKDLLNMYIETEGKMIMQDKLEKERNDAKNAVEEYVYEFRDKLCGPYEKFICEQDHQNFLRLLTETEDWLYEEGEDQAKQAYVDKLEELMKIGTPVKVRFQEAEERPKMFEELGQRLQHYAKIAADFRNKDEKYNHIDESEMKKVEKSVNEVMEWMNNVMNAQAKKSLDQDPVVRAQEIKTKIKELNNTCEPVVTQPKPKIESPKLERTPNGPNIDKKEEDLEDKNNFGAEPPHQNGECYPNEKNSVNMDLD
UniProt P19525: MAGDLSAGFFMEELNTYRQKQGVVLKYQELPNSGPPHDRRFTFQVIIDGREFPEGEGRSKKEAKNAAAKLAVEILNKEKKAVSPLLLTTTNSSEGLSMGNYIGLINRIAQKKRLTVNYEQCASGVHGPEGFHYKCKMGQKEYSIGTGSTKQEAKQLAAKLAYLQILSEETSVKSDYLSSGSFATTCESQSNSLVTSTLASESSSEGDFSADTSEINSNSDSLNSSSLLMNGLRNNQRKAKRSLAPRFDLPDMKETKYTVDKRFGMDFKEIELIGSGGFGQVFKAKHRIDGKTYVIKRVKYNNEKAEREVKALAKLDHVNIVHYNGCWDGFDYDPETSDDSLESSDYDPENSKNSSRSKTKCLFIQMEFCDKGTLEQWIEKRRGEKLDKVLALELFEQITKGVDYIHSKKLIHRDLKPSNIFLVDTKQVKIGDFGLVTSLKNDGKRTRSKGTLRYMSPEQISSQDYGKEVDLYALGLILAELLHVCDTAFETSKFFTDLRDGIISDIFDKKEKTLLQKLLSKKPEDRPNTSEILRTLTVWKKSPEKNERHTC

Columns and labels:
[1] = target: Cyclin-dependent kinase 7 (human (endogenous in MDA-MB-435)) (UniProt P50613); assay: co-IP; endogenous proteins of MDA-MB-435 cells; whole cell lysates or cytosolic and nuclear fractions in RIPA buffer (5 mM Tris-HCl pH 7.4, 150 mM NaCl, 1% NP-40, 1 mM EDTA, 1% sodium deoxycholate); 1 mg protein with specific primary antibodies and Protein G magnetic beads, Western blot; cells treated with CPYPP (10 uM, 6-24 h), CsA, curcumin or ML346, with or without THZ1, LY2857785 or PKRi pretreatment; which protein was precipitated not given
[2] = target: Cyclin-dependent kinase 9 (human (endogenous in MDA-MB-435)) (UniProt P50750); assay: as above

| binding [1] | binding [2] | Substance |
| --- | --- | --- |
| binds | binds | HSP27 (from UniProt P04792 1-205) |
| binds | binds | HSP105 (from UniProt Q92598 1-858) |
| binds | binds | Protein kinase R (from UniProt P19525 1-551) (enzyme) |
